Consider four molecules from paper PMC5696344.

Protein sequences, listed by entry. Tags and fused reporters are not part of them.
UniProt Q24572: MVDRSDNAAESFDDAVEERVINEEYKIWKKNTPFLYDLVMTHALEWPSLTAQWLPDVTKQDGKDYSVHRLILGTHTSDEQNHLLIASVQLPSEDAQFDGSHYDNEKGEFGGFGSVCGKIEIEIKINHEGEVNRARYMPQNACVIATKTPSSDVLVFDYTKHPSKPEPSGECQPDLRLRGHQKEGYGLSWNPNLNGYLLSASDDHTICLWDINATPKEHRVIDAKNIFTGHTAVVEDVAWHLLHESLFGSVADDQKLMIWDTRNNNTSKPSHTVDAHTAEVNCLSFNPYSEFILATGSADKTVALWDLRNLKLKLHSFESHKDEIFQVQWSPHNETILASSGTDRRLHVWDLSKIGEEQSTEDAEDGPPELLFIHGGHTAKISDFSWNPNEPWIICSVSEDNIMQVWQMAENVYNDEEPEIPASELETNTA

These are yes or no findings as the source states them, for the method shown. For some assays here: Binding seen in cells or lysates may run through a third protein. Some entries that bind do so weakly or less than the wild type. For some assays here: Where a sequence is shown, tags or fusion partners need not be part of it.

For assay [1], the target named is Flag-tagged C-terminal region of hAsh1L (amino acids 1465–2964) (human) (UniProt Q9NR48). The experiment in a line: co-IP; human proteins (Supplementary Fig. 1d, e); set-up not shown.
In assay [2] the target is T1, Flag-tagged Ash1C with the R1288A substitution (Drosophila) (UniProt Q9VW15).
T1 sequence: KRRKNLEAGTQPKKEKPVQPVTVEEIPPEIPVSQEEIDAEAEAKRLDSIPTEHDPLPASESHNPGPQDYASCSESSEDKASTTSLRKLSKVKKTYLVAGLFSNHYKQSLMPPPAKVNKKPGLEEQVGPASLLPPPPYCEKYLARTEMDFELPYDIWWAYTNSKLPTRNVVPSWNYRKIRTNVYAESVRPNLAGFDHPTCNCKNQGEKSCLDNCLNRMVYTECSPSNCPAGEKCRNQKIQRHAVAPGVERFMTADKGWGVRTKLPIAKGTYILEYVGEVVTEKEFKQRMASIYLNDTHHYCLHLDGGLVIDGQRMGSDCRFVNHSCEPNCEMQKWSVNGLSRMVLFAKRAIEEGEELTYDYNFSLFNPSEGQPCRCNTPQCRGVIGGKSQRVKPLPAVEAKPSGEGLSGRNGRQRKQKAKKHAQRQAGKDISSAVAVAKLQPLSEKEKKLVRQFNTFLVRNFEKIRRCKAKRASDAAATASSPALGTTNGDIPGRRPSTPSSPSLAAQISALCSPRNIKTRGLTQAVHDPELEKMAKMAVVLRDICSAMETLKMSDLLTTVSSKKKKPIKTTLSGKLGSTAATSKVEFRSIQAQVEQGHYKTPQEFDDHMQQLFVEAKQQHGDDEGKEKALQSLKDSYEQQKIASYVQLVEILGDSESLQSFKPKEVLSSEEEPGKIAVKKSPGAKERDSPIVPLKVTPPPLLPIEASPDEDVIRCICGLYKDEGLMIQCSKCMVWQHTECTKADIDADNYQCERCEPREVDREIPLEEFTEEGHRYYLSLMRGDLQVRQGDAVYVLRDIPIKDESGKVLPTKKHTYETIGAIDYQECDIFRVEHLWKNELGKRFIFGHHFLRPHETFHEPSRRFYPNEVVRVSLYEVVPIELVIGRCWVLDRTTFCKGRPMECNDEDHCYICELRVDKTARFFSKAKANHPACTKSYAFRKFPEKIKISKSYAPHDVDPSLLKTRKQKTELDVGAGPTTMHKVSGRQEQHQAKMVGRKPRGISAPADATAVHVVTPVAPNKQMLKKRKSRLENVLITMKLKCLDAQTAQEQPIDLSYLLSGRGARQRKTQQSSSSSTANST
The experiment in a line: co-IP; Flag-tagged Ash1C, its truncations and alanine substitutions; cells not given.

The target in assay [3] is T2, Flag-tagged truncated form of Drosophila Ash1 (Ash1C, amino acids 1146–2226) (Drosophila) (UniProt Q9VW15).
T2 sequence: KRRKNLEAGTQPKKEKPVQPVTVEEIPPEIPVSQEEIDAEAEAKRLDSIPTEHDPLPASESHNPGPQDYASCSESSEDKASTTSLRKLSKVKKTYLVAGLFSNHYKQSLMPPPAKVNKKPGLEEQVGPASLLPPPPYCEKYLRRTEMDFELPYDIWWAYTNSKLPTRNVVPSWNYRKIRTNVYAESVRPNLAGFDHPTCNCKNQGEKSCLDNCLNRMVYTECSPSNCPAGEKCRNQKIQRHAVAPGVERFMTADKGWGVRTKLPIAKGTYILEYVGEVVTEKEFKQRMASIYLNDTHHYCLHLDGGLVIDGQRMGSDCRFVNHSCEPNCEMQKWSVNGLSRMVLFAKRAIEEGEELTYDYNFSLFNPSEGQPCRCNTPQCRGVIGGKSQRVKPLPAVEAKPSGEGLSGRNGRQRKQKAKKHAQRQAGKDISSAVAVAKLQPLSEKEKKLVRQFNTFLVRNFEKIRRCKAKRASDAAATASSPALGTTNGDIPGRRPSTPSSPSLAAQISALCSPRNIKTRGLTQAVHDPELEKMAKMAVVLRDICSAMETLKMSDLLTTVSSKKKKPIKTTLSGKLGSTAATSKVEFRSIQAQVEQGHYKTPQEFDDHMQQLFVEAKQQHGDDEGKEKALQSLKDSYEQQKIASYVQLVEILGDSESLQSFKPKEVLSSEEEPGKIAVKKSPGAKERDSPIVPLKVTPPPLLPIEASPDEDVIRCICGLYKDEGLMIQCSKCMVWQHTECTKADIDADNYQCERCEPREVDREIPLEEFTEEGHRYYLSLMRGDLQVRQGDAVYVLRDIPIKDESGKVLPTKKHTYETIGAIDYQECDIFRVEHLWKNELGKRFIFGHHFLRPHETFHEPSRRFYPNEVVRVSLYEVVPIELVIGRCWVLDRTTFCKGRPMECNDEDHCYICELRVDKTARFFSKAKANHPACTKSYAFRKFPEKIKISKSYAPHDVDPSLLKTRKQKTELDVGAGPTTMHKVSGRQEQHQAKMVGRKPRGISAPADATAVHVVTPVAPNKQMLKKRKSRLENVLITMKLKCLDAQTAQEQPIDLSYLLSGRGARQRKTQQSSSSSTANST
The assay is described as above.

Assay [4] deals with T2, Flag-tagged truncated form of Drosophila Ash1 (Ash1C, amino acids 1146–2226) (Drosophila). The experiment in a line: co-IP; western blot (antibodies against Flag, Nurf55 and Mrg15) of the anti-Flag affinity-purified material from S2 cells expressing Flag-Ash1C; washing with 500 mM KCl. A general note: Immunoblotting shows a protein as a band on a membrane.
The target in assay [5] is T3, recombinant Drosophila Ash1C (1146–2226 aa) (Drosophila) (UniProt Q9VW15).
T3 sequence: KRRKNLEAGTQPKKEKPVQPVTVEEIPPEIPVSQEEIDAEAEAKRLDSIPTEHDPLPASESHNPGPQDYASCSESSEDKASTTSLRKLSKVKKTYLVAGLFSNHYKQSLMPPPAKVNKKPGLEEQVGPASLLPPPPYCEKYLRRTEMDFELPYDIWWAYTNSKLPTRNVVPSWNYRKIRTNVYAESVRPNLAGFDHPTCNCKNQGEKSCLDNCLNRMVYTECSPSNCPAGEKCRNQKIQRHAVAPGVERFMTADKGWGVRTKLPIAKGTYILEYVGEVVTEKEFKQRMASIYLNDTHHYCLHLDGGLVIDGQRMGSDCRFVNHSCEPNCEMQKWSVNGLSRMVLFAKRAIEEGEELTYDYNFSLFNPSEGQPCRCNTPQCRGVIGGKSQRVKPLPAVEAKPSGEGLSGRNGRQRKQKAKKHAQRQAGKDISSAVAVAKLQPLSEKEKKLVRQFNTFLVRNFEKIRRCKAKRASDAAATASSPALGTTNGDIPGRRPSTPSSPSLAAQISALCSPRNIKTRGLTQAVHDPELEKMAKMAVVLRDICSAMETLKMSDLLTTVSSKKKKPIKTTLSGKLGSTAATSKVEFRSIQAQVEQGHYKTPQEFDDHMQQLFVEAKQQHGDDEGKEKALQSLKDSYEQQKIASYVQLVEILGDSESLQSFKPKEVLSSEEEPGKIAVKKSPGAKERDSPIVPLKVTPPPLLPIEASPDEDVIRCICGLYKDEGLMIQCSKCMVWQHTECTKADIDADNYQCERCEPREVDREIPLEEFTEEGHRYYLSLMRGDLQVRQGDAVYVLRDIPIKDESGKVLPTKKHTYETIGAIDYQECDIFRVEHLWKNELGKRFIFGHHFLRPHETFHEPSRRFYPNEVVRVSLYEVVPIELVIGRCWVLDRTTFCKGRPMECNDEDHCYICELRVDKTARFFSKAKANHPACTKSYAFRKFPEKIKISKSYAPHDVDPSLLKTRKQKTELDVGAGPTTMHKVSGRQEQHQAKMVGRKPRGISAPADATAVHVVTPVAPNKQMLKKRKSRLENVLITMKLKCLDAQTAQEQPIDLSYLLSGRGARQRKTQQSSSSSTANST
Nature of the assay: co-purification of coexpressed recombinant proteins; Ash1C and Mrg15 coexpressed and co-purified as a complex; host and steps not stated.

In assay [6] the target is T2, Flag-tagged truncated form of Drosophila Ash1 (Ash1C, amino acids 1146–2226) (Drosophila). Nature of the assay: co-IP; Flag-tagged Ash1C, its truncations and alanine substitutions; cells not given. This is another data set of the same source.
The target of assay [7] is Drosophila Ash1 (endogenous) (Drosophila (endogenous in S2)) (UniProt Q9VW15). Nature of the assay: co-IP; endogenous proteins; 2 μg antibodies against Ash1 or Mrg15 (rabbit normal IgG as control) with 2 mg S2 cell nuclear extract in Buffer C at 4 °C overnight; protein G agarose; washed with 500 mM KCl, 0.1% NP40; western blot.

As to RbAp48 (from UniProt Q09028 1-425), in assay [1], the binding entry is given as “binds”.
Take “Drosophila Nurf55 (from UniProt Q24572 1-430)”: the binding entry in assay [2], in assay [3] and in assay [4] was “binds” throughout.

B1: recombinant Drosophila Mrg15 (protein, UniProt Q9Y0I1 1-424)
chain: MGEVKPAKVENYSTGTDANTLFVDGERVLCFHGPLIYEAKVLKTKPDATPVEYYIHYAGWSKNWDEWVPENRVLKYNDDNVKRRQELARQCGERSKKDNKKGSAKAKKMEQMRNESRASTPSKDSNTSQSTASSTPTTSAGPGSKSEAGSTGTTTTNSTANSTTSRAHRKSTQSTPSTARPGTPSDKKEDPAAAETTEEEGPVAPKKKRMSEQRPSLTGSDVAEKPLPPTTTPSTPTTEPAPCVESEEAYAAKVEVKIKIPDELKHYLTDDWYAVVREHKLLELPAKVTVQQISEQYLAHKKSVKSTSASKEVAINDVLDGIVEYFNVMLGSQLLYKFERTQYADVMQKHPDTPLSELYGSFHLLRLFVRLGSMLSYSALDQQSMQNLLTHVQDFLKFLVKNSSIFFSMSNFINVDPEYVRNAQ
For the molecule B1, in assay [5], the binding result was “binds”.

B2: Drosophila Mrg15 (protein, UniProt Q9Y0I1 1-424)
chain: MGEVKPAKVENYSTGTDANTLFVDGERVLCFHGPLIYEAKVLKTKPDATPVEYYIHYAGWSKNWDEWVPENRVLKYNDDNVKRRQELARQCGERSKKDNKKGSAKAKKMEQMRNESRASTPSKDSNTSQSTASSTPTTSAGPGSKSEAGSTGTTTTNSTANSTTSRAHRKSTQSTPSTARPGTPSDKKEDPAAAETTEEEGPVAPKKKRMSEQRPSLTGSDVAEKPLPPTTTPSTPTTEPAPCVESEEAYAAKVEVKIKIPDELKHYLTDDWYAVVREHKLLELPAKVTVQQISEQYLAHKKSVKSTSASKEVAINDVLDGIVEYFNVMLGSQLLYKFERTQYADVMQKHPDTPLSELYGSFHLLRLFVRLGSMLSYSALDQQSMQNLLTHVQDFLKFLVKNSSIFFSMSNFINVDPEYVRNAQ
In the case of B2, the binding result in assay [6], in assay [4] and in assay [7] was “binds” throughout.
